Measurements reported in PubChem BioAssay AID1259425 (University of Nebraska Medical Center, 2018)
Screen: 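Seek colon cancer weak points whose silencing resembles KSR1 loss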 (primary screen). Cell system: HCT116 human colon cancer cells. Reagent: siRNA pool against human genes, 50 nM siRNA. Detection: 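After 50 nM siRNA pool, branched-DNA assay measures six marker transcripts per well, minus blank, normalised to the geometric mean of two housekeeping transcripts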. Scale: BNIP3L mRNA: higher = more BNIP3L transcript after knockdown; NDRG1 mRNA: higher = more NDRG1 transcript after knockdown.
In all, the deposit lists about 14,000 reagents; this is a random part of them. Further read-outs or replicates are left out here. Not stated in the record: the time to read-out.

How did the screen score SPINT2 [SID364002010]?
BNIP3L mRNA, set 1: 0.0635; NDRG1 mRNA, set 1: 0.191

What did the screen give for HPCAL4 [SID363999986]?
BNIP3L mRNA, set 1: 0.0999; NDRG1 mRNA, set 1: 0.269

For OGFOD2 [SID364002923], what does the deposit list?
BNIP3L mRNA, set 1: 0.112; NDRG1 mRNA, set 1: 0.151

For DCHS2 [SID364000410], what was measured?
BNIP3L mRNA, set 1: 0.11; NDRG1 mRNA, set 1: 0.266

In a second layout: entries from further up
{"gene knocked down": "HPCAL4", "PubChem SID": "SID363999986", "BNIP3L mRNA, set 1": 0.0999, "NDRG1 mRNA, set 1": 0.269}
{"gene knocked down": "OGFOD2", "PubChem SID": "SID364002923", "BNIP3L mRNA, set 1": 0.112, "NDRG1 mRNA, set 1": 0.151}

The results go on:
Which result is listed for KRT32 [SID363993476]?
BNIP3L mRNA, set 1: 0.0783; NDRG1 mRNA, set 1: 0.142

For CHD8 [SID364005415], what does the deposit list?
BNIP3L mRNA, set 1: 0.118; NDRG1 mRNA, set 1: 0.351

Which result is listed for SLMAP [SID363997860]?
BNIP3L mRNA, set 1: 0.0601; NDRG1 mRNA, set 1: 0.112

How did the screen score PDXDC1 [SID363999260]?
BNIP3L mRNA, set 1: 0.0393; NDRG1 mRNA, set 1: 0.453

With ELF3 [SID363995415], how do the results read?
BNIP3L mRNA, set 1: 0.0586; NDRG1 mRNA, set 1: 0.172

With H2BC12 [SID364004485], what does the deposit list?
BNIP3L mRNA, set 1: 0.145; NDRG1 mRNA, set 1: 0.159

What did the screen give for E2F1 [SID363996147]?
BNIP3L mRNA, set 1: 0.168; NDRG1 mRNA, set 1: 0.293

Which result is listed for TBC1D30 [SID364005100]?
BNIP3L mRNA, set 1: 0.0311; NDRG1 mRNA, set 1: 0.138
